PubChem BioAssay AID1508597, Cure First – 2020
Shown is an unselected part of the about 2,100 reagents, in one setting of the screen. 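Calls flag viability under 80% in either arm, not effects specific to rucaparib; the reference for percent is not stated.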 The numbers tell different reagents against one gene apart. A reagent listed more than once was tested more than once; the source does not tell the runs apart. The record does not give: the 100% reference.

- Assay: 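Survival screen with siRNA in ovarian cancer cells derived from patients, with or without rucaparib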 (primary screen)
- Cells: human ovarian carcinoma lines grown from tumours: OCI-P5x (papillary serous) and OCI-C5x (clear cell)
- Reagents: siRNA pool against human genes, 1.25 pmol siRNA per well
- Duration: 72 h or 96 h, depending on the cell culture
- Treatment: rucaparib 20 µM (about IC30) or vehicle, present until read-out
- Rucaparib or vehicle: Vehicle
- Cell line: OCI-P5x (serous)
- Measured: 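Luminescent ATP-based viability assay read 72 or 96 h after transfection, depending on culture, given as normalised percent viability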
- Reading the numbers: viability, normalised: higher = more viable cells remaining
- Hit rule: 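a well counts as a hit if its normalised viability is under 80 percent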
- Meaning of the calls: active = viability under 80%; inactive = viability 80% or more

| target gene | reagent no. | technical replicate | viability, normalised (%) | outcome |
| --- | --- | --- | --- | --- |
| RAD51AP1 (GeneID 10635) | 1 | 1 | 71.9 | active |
| RAD51AP1 (GeneID 10635) | 1 | 2 | 74.4 | active |
| RAD51AP1 (GeneID 10635) | 1 | 3 | 83.6 | inactive |
| CCT2 (GeneID 10576) | 1 | 1 | 46.3 | active |
| CCT2 (GeneID 10576) | 1 | 2 | 63.9 | active |
| CCT2 (GeneID 10576) | 1 | 3 | 65.5 | active |
| DHX58 (GeneID 79132) | 1 | 1 | 65.4 | active |
| DHX58 (GeneID 79132) | 1 | 2 | 76.6 | active |
| DHX58 (GeneID 79132) | 1 | 3 | 67.9 | active |
| CLK3 (GeneID 1198) | 1 | 1 | 85.5 | inactive |
| CLK3 (GeneID 1198) | 1 | 2 | 90.9 | inactive |
| CLK3 (GeneID 1198) | 1 | 3 | 90.9 | inactive |
| USP1 (GeneID 7398) | 1 | 1 | 47.6 | active |
| USP1 (GeneID 7398) | 1 | 2 | 54.5 | active |
| USP1 (GeneID 7398) | 1 | 3 | 38.2 | active |
| RPS6KL1 (GeneID 83694) | 1 | 1 | 64.1 | active |
| RPS6KL1 (GeneID 83694) | 1 | 2 | 63.4 | active |
| RPS6KL1 (GeneID 83694) | 1 | 3 | 74.4 | active |
| POLN (GeneID 353497) | 1 | 1 | 72.9 | active |
| POLN (GeneID 353497) | 1 | 2 | 87.5 | inactive |
| POLN (GeneID 353497) | 1 | 3 | 83.1 | inactive |
| CLDN12 (GeneID 9069) | 1 | 1 | 54.1 | active |
| CLDN12 (GeneID 9069) | 1 | 2 | 74.5 | active |
| CLDN12 (GeneID 9069) | 1 | 3 | 54.8 | active |
| PIP4K2B (GeneID 8396) | 1 | 1 | 81.8 | inactive |
| PIP4K2B (GeneID 8396) | 1 | 2 | 80.1 | inactive |
| PIP4K2B (GeneID 8396) | 1 | 3 | 55.1 | active |
| ABRAXAS1 (GeneID 84142) | 1 | 1 | 67 | active |
| ABRAXAS1 (GeneID 84142) | 1 | 2 | 79.5 | active |
| ABRAXAS1 (GeneID 84142) | 1 | 3 | 121 | inactive |
| ABRAXAS1 (GeneID 84142) | 2 | 1 | 84.5 | inactive |
| ABRAXAS1 (GeneID 84142) | 2 | 2 | 91.3 | inactive |
| ABRAXAS1 (GeneID 84142) | 2 | 3 | 70.9 | active |
| PHKB (GeneID 5257) | 1 | 1 | 73.2 | active |
| PHKB (GeneID 5257) | 1 | 2 | 55 | active |
| PHKB (GeneID 5257) | 1 | 3 | 60.4 | active |

11 successive records already listed:
| target gene | reagent no. | technical replicate | viability, normalised (%) | outcome |
| --- | --- | --- | --- | --- |
| DHX58 (GeneID 79132) | 1 | 2 | 76.6 | active |
| DHX58 (GeneID 79132) | 1 | 3 | 67.9 | active |
| CLK3 (GeneID 1198) | 1 | 1 | 85.5 | inactive |
| CLK3 (GeneID 1198) | 1 | 2 | 90.9 | inactive |
| CLK3 (GeneID 1198) | 1 | 3 | 90.9 | inactive |
| USP1 (GeneID 7398) | 1 | 1 | 47.6 | active |
| USP1 (GeneID 7398) | 1 | 2 | 54.5 | active |
| USP1 (GeneID 7398) | 1 | 3 | 38.2 | active |
| RPS6KL1 (GeneID 83694) | 1 | 1 | 64.1 | active |
| RPS6KL1 (GeneID 83694) | 1 | 2 | 63.4 | active |
| RPS6KL1 (GeneID 83694) | 1 | 3 | 74.4 | active |

The list goes on:
| target gene | reagent no. | technical replicate | viability, normalised (%) | outcome |
| --- | --- | --- | --- | --- |
| UHMK1 (GeneID 127933) | 1 | 1 | 83.8 | inactive |
| UHMK1 (GeneID 127933) | 1 | 2 | 76.8 | active |
| UHMK1 (GeneID 127933) | 1 | 3 | 87.3 | inactive |
| DRD3 (GeneID 1814) | 1 | 1 | 42.5 | active |
| DRD3 (GeneID 1814) | 1 | 2 | 51.9 | active |
| DRD3 (GeneID 1814) | 1 | 3 | 44.9 | active |
| AKAP1 (GeneID 8165) | 1 | 1 | 58.3 | active |
| AKAP1 (GeneID 8165) | 1 | 2 | 57.1 | active |
| AKAP1 (GeneID 8165) | 1 | 3 | 58.3 | active |
| SETMAR (GeneID 6419) | 1 | 1 | 78.9 | active |
| SETMAR (GeneID 6419) | 1 | 1 | 61.9 | active |
| SETMAR (GeneID 6419) | 1 | 2 | 84.7 | inactive |
| SETMAR (GeneID 6419) | 1 | 2 | 73 | active |
| SETMAR (GeneID 6419) | 1 | 3 | 103 | inactive |
| SETMAR (GeneID 6419) | 1 | 3 | 104 | inactive |
| PANK3 (GeneID 79646) | 1 | 1 | 61.5 | active |
| PANK3 (GeneID 79646) | 1 | 2 | 48.2 | active |
| PANK3 (GeneID 79646) | 1 | 3 | 39 | active |
| FES (GeneID 2242) | 1 | 1 | 75 | active |
| FES (GeneID 2242) | 1 | 2 | 70.2 | active |
| FES (GeneID 2242) | 1 | 3 | 71.2 | active |
| AICDA (GeneID 57379) | 1 | 1 | 50.2 | active |
| AICDA (GeneID 57379) | 1 | 2 | 77.4 | active |
| AICDA (GeneID 57379) | 1 | 3 | 59.9 | active |
| TAF8 (GeneID 129685) | 1 | 1 | 68.5 | active |
| TAF8 (GeneID 129685) | 1 | 2 | 76.8 | active |
| TAF8 (GeneID 129685) | 1 | 3 | 80 | active |
| MED22 (GeneID 6837) | 1 | 1 | 64.4 | active |
| MED22 (GeneID 6837) | 1 | 2 | 82.8 | inactive |
| MED22 (GeneID 6837) | 1 | 3 | 80.4 | inactive |
| APPL2 (GeneID 55198) | 1 | 1 | 89.8 | inactive |
| APPL2 (GeneID 55198) | 1 | 2 | 81.2 | inactive |
| APPL2 (GeneID 55198) | 1 | 3 | 85.6 | inactive |
| CSNK1D (GeneID 1453) | 1 | 1 | 105 | inactive |
| CSNK1D (GeneID 1453) | 1 | 1 | 58.3 | active |
| CSNK1D (GeneID 1453) | 1 | 2 | 91.6 | inactive |
| CSNK1D (GeneID 1453) | 1 | 2 | 52.8 | active |
| CSNK1D (GeneID 1453) | 1 | 3 | 103 | inactive |
| CSNK1D (GeneID 1453) | 1 | 3 | 58.6 | active |
